PubChem BioAssay AID1347431 (National Center for Advancing Translational Sciences (NCATS), 2020)
In all, about 1,200 compounds went through this assay and fewer than 10 were called active. Calls follow the shape of the dose curve; as a rule, active = well fitted curve in the direction sought with a large enough effect; inconclusive = small, poorly fitted or top-dose-only effect, or another doubt; inactive = no such curve, though single readings can be large or run the other way. The list shows a part of the results.

Test: Confirmatory qHTS assay for inhibitors of Activation Induced Cytidine Deaminase (AID): UDG signals; also: 0% is about no effect
Details: UDG coupled enzyme activity counter-screen; at 115 µM (top of the series) unless noted
Summary of the method: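 Fluorescence at 560 nm excitation/665 nm emission reports UDG activity, read after NaOH quench of a 4 h room-temperature reaction of DJC20/DJC23 substrates with AID (1 uM, 4/3x) and UDG (2 U/mL, 4/3x); compounds at 7.32 nM - 114 uM final, preincubated 10 min.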
With `Cc1c(C(=O)Nc2ccc(F)cc2F)oc2c1-c1nn(Cc3c(F)cccc3Cl)cc1CC2` the activity change, negative = inhibition was inactive: 0.989%. With `Cc1ccc(CN(Cc2ccco2)C(=O)c2ccc(Cl)cc2Cl)cc1` the activity change, negative = inhibition was inactive: 4.19%. In the case of `Cc1cccc(-c2nc(CCNC(=O)COc3ccccc3)cs2)c1`, the activity change, negative = inhibition is reported as inactive: -11.8%. For `O=C(COc1ccc(Cl)cc1)N(Cc1ccco1)Cc1ccco1`, the activity change, negative = inhibition was inactive: -6.01%. For `CCOC(=O)c1c(C)oc2nc(C)nc(N3CCN(c4ccccc4F)CC3)c12`, the activity change, negative = inhibition was inactive: -3.63%. For `Cc1[nH]n2c(=O)cc(-c3ccc(Cl)cc3)nc2c1-c1ccccc1`, the activity change, negative = inhibition was inactive: 6.16%. In the case of `CCc1ccc(NS(=O)(=O)c2ccc3oc(=O)c4ncn(CC)c4c3c2)cc1`, the activity change, negative = inhibition is reported as inactive: 11.9%. For `CCn1c(SCc2ccccc2C)nc(=O)c2c(C(=O)OC)cc(C3CC3)nc21`, the activity change, negative = inhibition was inactive: 7.93%. For `CCN(c1cccc(C)c1)S(=O)(=O)c1ccc(-n2cccn2)cc1`, the activity change, negative = inhibition was inactive: 7.06%. With `Cc1[nH]n(-c2ccccc2)c(=O)c1C(c1cc(Cl)ccc1O)c1c(C)[nH]n(-c2ccccc2)c1=O` the activity change, negative = inhibition was inactive: 10.8%. With `CN(CCCNC(=O)c1cc2c(Cl)nc3ccccc3c2s1)Cc1ccccc1` the activity change, negative = inhibition was inactive: 4.21%. With `Cc1ccc(C2CCN(C(=O)c3cnn(-c4cccc(Cl)c4)c3C3CCN(C(=O)OC(C)(C)C)CC3)C2)cc1` (configuration not stated) the activity change, negative = inhibition was inactive: -4.86%. For `COc1ccc(NC(=O)N(CCC(C)C)C(C)c2cccs2)c(OC)c1` (configuration not stated), the activity change, negative = inhibition was inactive: 1.79%. For `COc1ccccc1Oc1nc2c(c(=O)n(C)c(=O)n2C)n1Cc1cccc(Br)c1`, the activity change, negative = inhibition was inactive: -1.11%. In the case of `Cc1ccc(Cl)cc1N1CCN(C(=O)c2cc(S(=O)(=O)N3CCC(C)CC3)cn2C)CC1`, the activity change, negative = inhibition is reported as inactive: -6%. For `Cc1ccc(C)c(C(=O)N2CCC(c3nc4c(nnn4Cc4ccccc4)c(=O)[nH]3)CC2)c1`, the activity change, negative = inhibition was inactive: 7.61%. For `CCc1ccccc1NC(=O)[C@H](Cc1ccccc1)N1Cc2ccccc2C1=O`, the activity change, negative = inhibition was inactive: -5.74%. In the case of `CC(C)CN(c1ccccc1)S(=O)(=O)c1nnc(NC(=O)c2ccco2)s1`, the activity change, negative = inhibition is reported as inactive: 3.9%. For `Cc1ccc(N2CCN(C(=O)c3nn(C)c4c3CS(=O)(=O)c3ccccc3-4)CC2C)cc1` (configuration not stated), the activity change, negative = inhibition was inactive: 2.11%. With `COc1cccc(NC(=O)Cn2c(=O)n(Cc3ccccc3)c(=O)c3c4c(sc32)CN(C(C)=O)CC4)c1` the activity change, negative = inhibition was inactive: -1.92%. For `COc1ccc(Cn2cc(C(=O)c3ccc(OC)cc3)c(=O)c3cc4c(cc32)OCCO4)cc1`, the activity change, negative = inhibition was inactive: 2.39%. In the case of `Cc1nc2c(-c3ccccc3)c(C)nn2c(C)c1CCC(=O)N1CCN(c2ccccc2)CC1`, the activity change, negative = inhibition is reported as inactive: 2.79%. In the case of `Cc1ncc(CO)c2c1Oc1nc(-c3ccccc3)nc(SCC(=O)N3CCCCC3)c1C2`, the activity change, negative = inhibition is reported as inactive: -7.24%. With `CC(C)c1ccc2c(c1)c(SC(C)(C)C)c(CC(C)(C)C(=O)O)n2Cc1ccc(Cl)cc1` the activity change, negative = inhibition was inactive: -8.67%. In the case of `Cc1ccc(CCNC(=O)c2ccc3c(c2)N(Cc2ccccc2F)C(=O)c2ccccc2S3=O)cc1` (configuration not stated), the activity change, negative = inhibition is reported as inactive: -2.13%. In the case of `COc1ccc(-c2cc3ncc(C(=O)c4cc([N+](=O)[O-])ccc4O)cn3n2)cc1`, the activity change, negative = inhibition is reported as inactive: 4.06%. In the case of `O=C(c1ccc2c(c1)N(Cc1c(F)cccc1Cl)C(=O)c1ccccc1S2)N1CCCC1`, the activity change, negative = inhibition is reported as inactive: -3.45%. In the case of `Cc1ccc(-n2cc(-c3ccccc3)nc2S(=O)(=O)CC(=O)Nc2ccc(F)cc2)cc1`, the activity change, negative = inhibition is reported as inactive: -6.08%. In the case of `CCCn1c2ccccc2c2cnn(CC(=O)N(C)c3ccccc3CC)c(=O)c21`, the activity change, negative = inhibition is reported as inactive: -2.7%. With `CCc1cccc(-n2c(C)nc3c(cnn3-c3ccc(C)c(C)c3)c2=O)c1` the activity change, negative = inhibition was inactive: -3.24%. For `COc1cccc2sc(N(Cc3cccnc3)C(=O)Cc3ccccc3)nc12`, the activity change, negative = inhibition was inactive: 10.2%. For `Cc1nc(Nc2ccc(Cl)cc2)cc(-c2ccccc2)n1`, the activity change, negative = inhibition was inactive: -16.5%. For `COc1cccc(Cn2nnc3c(=O)[nH]c(C4CCN(C(=O)c5ccccc5Cl)CC4)nc32)c1`, the activity change, negative = inhibition was inactive: 2.95%. With `O=C(NCCc1ccccc1Cl)c1sc2ncccc2c1-n1cccc1` the activity change, negative = inhibition was inactive: -9%. In the case of `CN(C)CCNc1ncnc2c1cnn2-c1cccc(Cl)c1`, the activity change, negative = inhibition is reported as inactive: -9.32%. With `O=C(CSC1=Nc2ccccc2N=C(c2ccc(F)cc2)C1)Nc1cccc(C(F)(F)F)c1` the activity change, negative = inhibition was inactive: -4.58%. With `CCCN(CCC)CCCNC(=O)c1cn(CC)c2ccc(S(=O)(=O)N(C)C3CCCCC3)cc2c1=O` the activity change, negative = inhibition was inactive: -14%. In the case of `Cc1nc2c(C(=O)NCCC(C)C)cnn2c(C)c1Cc1c(F)cccc1Cl`, the activity change, negative = inhibition is reported as inactive: -17.1%. With `CCCn1cc(S(=O)(=O)c2ccc(OC)cc2)c(=O)c2cc(F)c(N3CCCCCC3)cc21` the activity change, negative = inhibition was inactive: -2.2%. For `CCn1cc(S(=O)(=O)c2ccc(C)cc2C)c(=O)c2cc(F)c(N3CCCC3)cc21`, the activity change, negative = inhibition was inactive: 0.779%. With `COC(=O)c1c(NC(=O)COc2ccc(OC)cc2)sc2c1CCC(C)C2` (configuration not stated) the activity change, negative = inhibition was inactive: 6.36%. For `COc1cc(C(=O)Nc2ccc(OCc3cc(=O)n4cccc(C)c4n3)cc2)cc(OC)c1OC`, the activity change, negative = inhibition was inactive: 6.24%. For `CCCCn1cc(S(=O)(=O)c2ccccc2)c(=O)c2cc(F)c(N3CCC(C)CC3)cc21`, the activity change, negative = inhibition was inactive: 2.03%. For `Cc1ccc(-c2nnc(Nc3ccc(O)cc3)c3ccccc23)cc1S(=O)(=O)NC(C)(C)CO`, the activity change, negative = inhibition was inactive: -6.8%. With `COc1ccc(Nc2cc(C)c3cc(NC(=O)COc4cccc(C)c4)ccc3n2)cc1` the activity change, negative = inhibition was inactive: -15.8%. For `CC(=O)N1CCc2c(sc3c2c(=O)n(Cc2ccccc2)c(=O)n3Cc2ccccc2Cl)C1`, the activity change, negative = inhibition was inactive: -6.32%. With `Cc1ccc(Cl)cc1N1CCN(C(=O)COc2cc(=O)n(C)c3ccccc23)CC1` the activity change, negative = inhibition was inactive: 4.81%. In the case of `COc1ccc(OC)c(NC(=O)CSc2nccn2-c2cc(C)cc(C)c2)c1`, the activity change, negative = inhibition is reported as inactive: -12.6%. For `CN(C)c1ccc(-c2nnc3n(Cc4ccccc4)c(=O)c4ccccc4n23)cc1`, the activity change, negative = inhibition was inactive: -5.71%. In the case of `Cc1nc2nc(SCC(=O)NCCc3ccc(Cl)cc3)nn2c(C)c1Cc1ccccc1Cl`, the activity change, negative = inhibition is reported as inactive: -9.67%. With `COc1ccc(C(=O)c2cn(Cc3cccc(C)c3)c3cc4c(cc3c2=O)OCO4)cc1` the activity change, negative = inhibition was inactive: 0.0805%. For `CCCN(CCC)CC(O)Cn1cc(/C=C/C(=O)c2ccc(OC)cc2)c2ccccc21` (configuration not stated), the activity change, negative = inhibition was inactive: -16.8%.
